Measured values: the supplement of paper PMC6411743
± gives the standard deviation of the averaged measurements. The list shows a part of the results, in another mix than the full data.

Chains of the proteins cited; added tags and fusions are not shown. Lines headed by an entry give the natural chain unless they say otherwise; changes in a name come on top.
UniProt Q8NC96: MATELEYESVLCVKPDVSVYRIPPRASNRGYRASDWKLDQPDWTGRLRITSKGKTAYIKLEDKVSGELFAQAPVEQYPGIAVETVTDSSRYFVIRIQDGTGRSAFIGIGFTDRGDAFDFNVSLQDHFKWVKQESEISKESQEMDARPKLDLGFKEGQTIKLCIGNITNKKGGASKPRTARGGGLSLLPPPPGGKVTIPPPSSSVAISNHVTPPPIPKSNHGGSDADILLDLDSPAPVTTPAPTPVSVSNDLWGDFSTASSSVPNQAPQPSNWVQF
UniProt Q8N4N3: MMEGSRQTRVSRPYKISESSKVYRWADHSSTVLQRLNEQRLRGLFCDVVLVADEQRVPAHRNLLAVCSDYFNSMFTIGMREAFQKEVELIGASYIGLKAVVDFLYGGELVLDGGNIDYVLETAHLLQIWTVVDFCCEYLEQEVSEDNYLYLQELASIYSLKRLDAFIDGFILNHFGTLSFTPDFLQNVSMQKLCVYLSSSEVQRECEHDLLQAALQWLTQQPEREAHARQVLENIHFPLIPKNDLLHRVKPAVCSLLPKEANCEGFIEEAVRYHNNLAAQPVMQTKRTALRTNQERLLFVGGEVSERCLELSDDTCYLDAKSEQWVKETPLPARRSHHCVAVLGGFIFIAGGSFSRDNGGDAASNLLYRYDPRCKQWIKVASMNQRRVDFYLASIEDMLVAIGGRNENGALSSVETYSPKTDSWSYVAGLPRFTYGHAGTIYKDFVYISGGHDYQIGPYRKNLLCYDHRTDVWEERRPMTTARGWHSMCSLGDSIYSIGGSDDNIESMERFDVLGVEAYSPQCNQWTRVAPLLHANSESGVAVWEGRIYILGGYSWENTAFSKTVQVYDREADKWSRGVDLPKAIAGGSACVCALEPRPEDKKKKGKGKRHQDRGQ
UniProt Q8N9F7: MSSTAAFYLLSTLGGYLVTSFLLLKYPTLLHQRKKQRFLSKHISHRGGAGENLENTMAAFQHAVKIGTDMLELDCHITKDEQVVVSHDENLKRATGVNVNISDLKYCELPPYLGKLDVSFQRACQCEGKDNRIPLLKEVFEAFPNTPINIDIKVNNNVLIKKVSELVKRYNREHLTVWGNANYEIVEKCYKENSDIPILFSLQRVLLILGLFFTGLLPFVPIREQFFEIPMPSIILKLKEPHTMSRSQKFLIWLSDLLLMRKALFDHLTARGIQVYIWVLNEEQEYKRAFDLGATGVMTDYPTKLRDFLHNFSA
UniProt Q8IW35: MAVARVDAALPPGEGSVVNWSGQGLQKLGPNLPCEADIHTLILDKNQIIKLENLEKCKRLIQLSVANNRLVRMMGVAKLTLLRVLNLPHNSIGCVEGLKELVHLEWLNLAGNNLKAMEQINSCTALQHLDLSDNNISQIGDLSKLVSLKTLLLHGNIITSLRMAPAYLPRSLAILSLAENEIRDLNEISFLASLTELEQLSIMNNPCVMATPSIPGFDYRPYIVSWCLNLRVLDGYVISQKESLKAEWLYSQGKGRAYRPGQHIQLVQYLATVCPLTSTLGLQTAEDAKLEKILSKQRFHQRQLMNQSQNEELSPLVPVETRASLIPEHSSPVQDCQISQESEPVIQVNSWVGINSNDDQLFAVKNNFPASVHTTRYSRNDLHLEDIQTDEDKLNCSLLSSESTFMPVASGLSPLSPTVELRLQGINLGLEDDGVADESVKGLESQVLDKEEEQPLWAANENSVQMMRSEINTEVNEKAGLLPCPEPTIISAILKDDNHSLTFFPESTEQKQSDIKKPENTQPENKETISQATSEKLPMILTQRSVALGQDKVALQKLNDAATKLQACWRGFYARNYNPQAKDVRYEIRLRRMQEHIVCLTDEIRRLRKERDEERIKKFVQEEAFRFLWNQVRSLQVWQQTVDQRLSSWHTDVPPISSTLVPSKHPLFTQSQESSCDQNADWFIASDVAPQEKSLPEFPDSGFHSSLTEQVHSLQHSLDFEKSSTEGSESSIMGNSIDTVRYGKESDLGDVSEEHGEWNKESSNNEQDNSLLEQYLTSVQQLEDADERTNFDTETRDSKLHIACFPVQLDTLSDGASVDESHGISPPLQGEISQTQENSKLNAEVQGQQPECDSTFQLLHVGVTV
UniProt Q8NFY9: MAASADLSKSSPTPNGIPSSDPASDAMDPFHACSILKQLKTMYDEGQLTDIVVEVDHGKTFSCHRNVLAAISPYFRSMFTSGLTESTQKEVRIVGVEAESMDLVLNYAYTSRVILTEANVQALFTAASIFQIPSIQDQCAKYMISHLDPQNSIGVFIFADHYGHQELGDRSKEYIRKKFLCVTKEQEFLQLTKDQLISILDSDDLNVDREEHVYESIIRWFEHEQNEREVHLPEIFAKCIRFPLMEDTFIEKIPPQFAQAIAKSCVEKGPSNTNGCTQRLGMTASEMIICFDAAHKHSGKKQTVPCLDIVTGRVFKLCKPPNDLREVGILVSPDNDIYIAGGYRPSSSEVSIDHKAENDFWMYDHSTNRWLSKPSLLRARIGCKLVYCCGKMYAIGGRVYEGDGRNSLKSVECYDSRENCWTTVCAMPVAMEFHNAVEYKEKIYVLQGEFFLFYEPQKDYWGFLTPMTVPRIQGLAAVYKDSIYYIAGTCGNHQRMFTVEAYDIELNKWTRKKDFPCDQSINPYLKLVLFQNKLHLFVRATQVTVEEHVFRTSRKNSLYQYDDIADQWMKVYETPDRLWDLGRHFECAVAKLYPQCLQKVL
UniProt Q8N806: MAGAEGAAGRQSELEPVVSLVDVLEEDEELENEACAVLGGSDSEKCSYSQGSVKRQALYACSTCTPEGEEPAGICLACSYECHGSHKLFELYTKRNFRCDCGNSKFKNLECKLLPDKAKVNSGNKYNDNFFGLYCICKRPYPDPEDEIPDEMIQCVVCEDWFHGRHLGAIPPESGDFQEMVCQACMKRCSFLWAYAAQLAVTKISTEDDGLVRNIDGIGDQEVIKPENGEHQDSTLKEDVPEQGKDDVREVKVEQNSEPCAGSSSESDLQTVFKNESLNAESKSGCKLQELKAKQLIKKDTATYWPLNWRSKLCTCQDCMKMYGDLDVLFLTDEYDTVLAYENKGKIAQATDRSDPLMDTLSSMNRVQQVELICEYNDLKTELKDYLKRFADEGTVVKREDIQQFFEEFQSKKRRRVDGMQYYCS
UniProt Q8IYU2: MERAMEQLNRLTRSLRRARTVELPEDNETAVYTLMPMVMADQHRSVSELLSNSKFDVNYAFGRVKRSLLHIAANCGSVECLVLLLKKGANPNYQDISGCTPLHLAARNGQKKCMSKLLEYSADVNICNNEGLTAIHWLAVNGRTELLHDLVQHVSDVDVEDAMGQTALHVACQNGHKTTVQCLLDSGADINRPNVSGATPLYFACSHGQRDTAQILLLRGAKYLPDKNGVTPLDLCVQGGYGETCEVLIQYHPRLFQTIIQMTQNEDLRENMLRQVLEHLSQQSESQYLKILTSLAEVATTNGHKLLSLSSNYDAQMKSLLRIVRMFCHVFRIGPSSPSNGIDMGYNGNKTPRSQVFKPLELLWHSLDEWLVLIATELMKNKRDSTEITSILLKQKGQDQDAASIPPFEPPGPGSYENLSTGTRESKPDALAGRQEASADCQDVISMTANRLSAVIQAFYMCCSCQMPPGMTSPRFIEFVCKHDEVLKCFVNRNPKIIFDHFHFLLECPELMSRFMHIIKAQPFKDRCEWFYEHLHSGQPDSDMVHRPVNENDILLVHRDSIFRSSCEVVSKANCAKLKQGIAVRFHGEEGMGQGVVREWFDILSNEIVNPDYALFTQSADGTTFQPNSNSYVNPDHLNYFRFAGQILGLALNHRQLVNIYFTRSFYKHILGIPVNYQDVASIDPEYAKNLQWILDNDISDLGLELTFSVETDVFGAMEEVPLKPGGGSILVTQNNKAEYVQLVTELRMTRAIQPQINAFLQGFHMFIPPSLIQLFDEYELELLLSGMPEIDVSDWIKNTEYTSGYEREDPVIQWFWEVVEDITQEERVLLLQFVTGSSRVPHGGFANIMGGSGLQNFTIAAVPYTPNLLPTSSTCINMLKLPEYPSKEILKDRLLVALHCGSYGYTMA
UniProt Q8ND25: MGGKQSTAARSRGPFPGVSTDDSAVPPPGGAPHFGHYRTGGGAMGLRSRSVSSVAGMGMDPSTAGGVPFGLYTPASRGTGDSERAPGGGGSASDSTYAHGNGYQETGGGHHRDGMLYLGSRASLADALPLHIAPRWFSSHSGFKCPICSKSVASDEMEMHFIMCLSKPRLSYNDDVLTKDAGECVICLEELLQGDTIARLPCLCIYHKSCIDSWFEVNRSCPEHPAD
UniProt Q8N129: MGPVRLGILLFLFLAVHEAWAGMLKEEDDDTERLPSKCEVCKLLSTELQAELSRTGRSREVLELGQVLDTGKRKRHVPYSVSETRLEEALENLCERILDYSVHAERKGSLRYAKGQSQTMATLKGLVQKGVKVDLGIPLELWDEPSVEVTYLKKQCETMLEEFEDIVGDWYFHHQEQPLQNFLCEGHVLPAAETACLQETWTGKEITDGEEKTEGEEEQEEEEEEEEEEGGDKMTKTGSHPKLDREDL
UniProt Q8NDX6: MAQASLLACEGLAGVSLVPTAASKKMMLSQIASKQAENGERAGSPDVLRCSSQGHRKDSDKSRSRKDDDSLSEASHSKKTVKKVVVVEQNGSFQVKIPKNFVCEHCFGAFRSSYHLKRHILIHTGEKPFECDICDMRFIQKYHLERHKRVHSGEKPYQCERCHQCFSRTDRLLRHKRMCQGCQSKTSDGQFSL
UniProt Q8N2K0: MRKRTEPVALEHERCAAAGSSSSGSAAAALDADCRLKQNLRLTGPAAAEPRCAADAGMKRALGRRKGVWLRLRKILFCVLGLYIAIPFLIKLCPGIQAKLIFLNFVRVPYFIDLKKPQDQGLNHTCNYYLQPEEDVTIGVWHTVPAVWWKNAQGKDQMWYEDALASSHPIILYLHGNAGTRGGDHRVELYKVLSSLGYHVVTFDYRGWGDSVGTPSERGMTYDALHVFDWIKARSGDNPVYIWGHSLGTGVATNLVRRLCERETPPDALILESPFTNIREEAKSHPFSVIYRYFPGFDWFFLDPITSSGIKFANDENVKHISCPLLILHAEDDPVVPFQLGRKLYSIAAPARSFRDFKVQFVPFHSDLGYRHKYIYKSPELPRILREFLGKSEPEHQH
UniProt Q8NC56: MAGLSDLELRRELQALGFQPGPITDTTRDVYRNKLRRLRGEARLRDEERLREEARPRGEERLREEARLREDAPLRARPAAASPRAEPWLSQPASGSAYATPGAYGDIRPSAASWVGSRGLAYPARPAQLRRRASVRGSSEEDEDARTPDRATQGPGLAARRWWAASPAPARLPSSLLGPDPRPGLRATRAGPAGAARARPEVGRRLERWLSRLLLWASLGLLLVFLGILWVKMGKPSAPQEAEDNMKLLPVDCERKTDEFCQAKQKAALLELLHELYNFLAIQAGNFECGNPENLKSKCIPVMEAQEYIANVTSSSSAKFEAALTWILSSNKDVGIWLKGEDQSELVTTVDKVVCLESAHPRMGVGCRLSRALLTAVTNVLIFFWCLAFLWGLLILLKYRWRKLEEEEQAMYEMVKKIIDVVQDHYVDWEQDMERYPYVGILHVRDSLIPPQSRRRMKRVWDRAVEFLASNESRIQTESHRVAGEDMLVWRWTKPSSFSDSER
UniProt Q8NEZ5: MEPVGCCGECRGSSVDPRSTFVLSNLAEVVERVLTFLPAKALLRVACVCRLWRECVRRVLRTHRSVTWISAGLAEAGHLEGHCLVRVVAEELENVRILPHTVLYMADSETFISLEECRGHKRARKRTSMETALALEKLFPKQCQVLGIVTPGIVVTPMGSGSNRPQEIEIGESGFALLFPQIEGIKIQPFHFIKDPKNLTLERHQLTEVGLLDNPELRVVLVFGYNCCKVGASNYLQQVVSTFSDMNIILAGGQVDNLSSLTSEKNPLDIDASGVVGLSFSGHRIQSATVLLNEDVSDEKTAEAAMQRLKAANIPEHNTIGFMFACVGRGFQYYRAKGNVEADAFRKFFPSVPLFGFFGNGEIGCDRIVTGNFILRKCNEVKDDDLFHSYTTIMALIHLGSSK
UniProt Q8NCL4: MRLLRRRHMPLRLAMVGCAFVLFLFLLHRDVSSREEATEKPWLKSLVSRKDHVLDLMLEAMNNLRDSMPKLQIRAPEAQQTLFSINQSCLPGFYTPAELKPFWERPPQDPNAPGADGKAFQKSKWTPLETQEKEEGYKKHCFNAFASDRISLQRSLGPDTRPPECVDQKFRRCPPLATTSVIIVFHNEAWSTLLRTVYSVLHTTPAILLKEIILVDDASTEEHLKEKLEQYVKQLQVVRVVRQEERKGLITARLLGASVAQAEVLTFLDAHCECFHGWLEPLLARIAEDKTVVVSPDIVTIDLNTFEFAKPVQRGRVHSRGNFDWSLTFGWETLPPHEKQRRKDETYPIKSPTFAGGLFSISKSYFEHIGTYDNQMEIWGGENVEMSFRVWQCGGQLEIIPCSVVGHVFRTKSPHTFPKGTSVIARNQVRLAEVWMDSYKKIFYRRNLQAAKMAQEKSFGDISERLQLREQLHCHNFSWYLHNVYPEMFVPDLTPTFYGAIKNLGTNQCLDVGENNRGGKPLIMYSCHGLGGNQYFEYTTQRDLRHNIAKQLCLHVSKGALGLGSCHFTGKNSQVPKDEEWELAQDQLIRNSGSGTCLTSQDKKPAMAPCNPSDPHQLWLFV

Compound: Nc1ncnc2c1ncn2[C@@H]1O[C@H](COP(=O)(O)OP(=O)(O)OP(=O)(O)O)[C@@H](O)[C@H]1O [adenosine triphosphate]
Assay: NP40-soluble protein abundance relative to vehicle (solubility fold change) (ratio); higher = more soluble protein in presence of ATP
Method in brief: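 Eight concentrations, 0.1 to 10 mM, were tested on Jurkat crude lysate for 10 min at room temperature and then 3 min at 37 °C, in three independent experiments. The lysate was solubilised with 0.8% NP40 and benzonase, ultracentrifuged, and the supernatant TMT-labelled for LC-MS/MS. Each value is the fold change against the detergent-processed vehicle in its own replicate, from vsn-normalised intensities.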

Target	NP40-soluble protein abundance (concentration: 1mM)	NP40-soluble protein abundance (concentration: 2mM)	NP40-soluble protein abundance (concentration: 4mM)	NP40-soluble protein abundance (concentration: 6mM)	NP40-soluble protein abundance (concentration: 8mM)	NP40-soluble protein abundance (concentration: 10mM)
NECAP1 (UniProt Q8NC96)	0.997 ± 0.023	0.946 ± 0.072	1 ± 0.024	0.974 ± 0.044	1.01 ± 0.076	0.905 ± 0.047
KLHL36 (UniProt Q8N4N3)	0.981 ± 0.034	0.9675 ± 0.0046	0.963 ± 0.077	0.954 ± 0.017	0.987 ± 0.062	0.941 ± 0.035
GDPD1 (UniProt Q8N9F7)	1 ± 0.019	1.04 ± 0.058	1.03 ± 0.058	0.96 ± 0.16	1.02 ± 0.12	0.93 ± 0.027
UniProt Q8IW35 and related entries	0.974 ± 0.027	0.979 ± 0.015	0.987 ± 0.029	0.966 ± 0.02	0.992 ± 0.038	1.02 ± 0.051
KBTBD8 (UniProt Q8NFY9)	1.04 ± 0.1	1.07 ± 0.068	1.06 ± 0.12	0.996 ± 0.077	1.09 ± 0.06	1.07 ± 0.1
WDFY1 (UniProt Q8IWB7)	1.05 ± 0.11	1.02 ± 0.11	0.995 ± 0.13	0.926 ± 0.11	1.02 ± 0.097	0.982 ± 0.065
UBR7 (UniProt Q8N806)	0.975 ± 0.037	0.983 ± 0.024	0.963 ± 0.038	0.957 ± 0.029	0.945 ± 0.047	0.951 ± 0.042
UniProt Q8IYU2 and related entries	1 ± 0.023	0.996 ± 0.066	0.977 ± 0.01	0.964 ± 0.16	0.912 ± 0.062	1.08 ± 0.13
UniProt Q8N371	1.06 ± 0.055	1.09 ± 0.051	1.05 ± 0.02	1.01 ± 0.028	1.03 ± 0.1	1.05 ± 0.077
UniProt Q8N0V3	0.938 ± 0.094	1.03 ± 0.014	1.05 ± 0.086	0.983 ± 0.0019	0.924 ± 0.052	1.05 ± 0.04
SHCBP1 (UniProt Q8NEM2)	1.09 ± 0.047	0.997 ± 0.077	1.09 ± 0.065	0.991 ± 0.032	1.02 ± 0.053	1.03 ± 0.059
UniProt Q8ND25 and related entries	0.909 ± 0.13	0.9449 ± 0.0092	0.947 ± 0.049	0.999 ± 0.023	0.91 ± 0.05	0.903 ± 0.042
UniProt Q8NI60 and related entries	0.979 ± 0.089	1.02 ± 0.084	1.02 ± 0.077	0.946 ± 0.06	0.993 ± 0.026	1.03 ± 0.085
UniProt Q8N5U6 and related entries	1.1 ± 0.077	1.16 ± 0.059	1.24 ± 0.02	1.28 ± 0.063	1.27 ± 0.076	1.33 ± 0.061
UniProt Q8NHV4 and related entries	0.958 ± 0.024	0.962 ± 0.013	0.96 ± 0.016	0.994 ± 0.069	0.947 ± 0.026	0.991 ± 0.038
CNPY4 (UniProt Q8N129)	0.898 ± 0.25	0.823 ± 0.33	0.856 ± 0.26	0.89 ± 0.31	0.786 ± 0.28	0.782 ± 0.18
ZNF740 (UniProt Q8NDX6)	1.05 ± 0.026	0.977 ± 0.014	1.06 ± 0.012	1.05 ± 0.036	1.11 ± 0.05	1.14 ± 0.086

Complete entries, quoted from the list. Values in the order: NP40-soluble protein abundance (concentration: 1mM)	NP40-soluble protein abundance (concentration: 2mM)	NP40-soluble protein abundance (concentration: 4mM)	NP40-soluble protein abundance (concentration: 6mM)	NP40-soluble protein abundance (concentration: 8mM)	NP40-soluble protein abundance (concentration: 10mM)
NECAP1 (UniProt Q8NC96) is listed with 0.997 ± 0.023	0.946 ± 0.072	1 ± 0.024	0.974 ± 0.044	1.01 ± 0.076	0.905 ± 0.047
CNPY4 (UniProt Q8N129) is listed with 0.898 ± 0.25	0.823 ± 0.33	0.856 ± 0.26	0.89 ± 0.31	0.786 ± 0.28	0.782 ± 0.18

Following part.

Target	NP40-soluble protein abundance (concentration: 1mM)	NP40-soluble protein abundance (concentration: 2mM)	NP40-soluble protein abundance (concentration: 4mM)	NP40-soluble protein abundance (concentration: 6mM)	NP40-soluble protein abundance (concentration: 8mM)	NP40-soluble protein abundance (concentration: 10mM)
UniProt Q8N2K0 and related entries	1.06 ± 0.026	1.04 ± 0.037	1.1 ± 0.03	1.03 ± 0.035	1.1 ± 0.028	1.07 ± 0.052
NUP43 (UniProt Q8NFH3)	1.03 ± 0.081	1.06 ± 0.081	1.04 ± 0.088	0.967 ± 0.13	1.04 ± 0.12	1.01 ± 0.071
CKAP2L (UniProt Q8IYA6)	1 ± 0.062	1.08 ± 0.044	1.08 ± 0.043	1.11 ± 0.086	1.11 ± 0.013	1.202 ± 0.0031
UniProt Q8N9N2-2|Q8N9N2	1.08 ± 0.22	0.991 ± 0.09	0.976 ± 0.072	0.966 ± 0.15	1.07 ± 0.073	1.06 ± 0.075
GCC2 (UniProt Q8IWJ2)	0.971 ± 0.03	0.971 ± 0.01	0.963 ± 0.017	0.9999 ± 0.0089	0.9388 ± 0.0063	0.9413 ± 0.0072
LEMD2 (UniProt Q8NC56)	1.38 ± 0.092	1.42 ± 0.084	1.44 ± 0.12	1.5 ± 0.072	1.47 ± 0.097	1.47 ± 0.05
UniProt Q8TAT6 and related entries	0.976 ± 0.041	0.9832 ± 0.0064	0.965 ± 0.022	0.952 ± 0.054	0.966 ± 0.038	0.963 ± 0.013
LRRC47 (UniProt Q8N1G4)	1 ± 0.0066	1.02 ± 0.034	1.03 ± 0.03	1.06 ± 0.035	1.04 ± 0.043	1.05 ± 0.053
DCP1B (UniProt Q8IZD4)	0.97 ± 0.07	0.974 ± 0.065	0.988 ± 0.051	0.989 ± 0.049	0.957 ± 0.027	0.969 ± 0.042
UniProt Q8N357	1.02 ± 0.052	1.04 ± 0.077	1.03 ± 0.024	1.06 ± 0.083	1.01 ± 0.15	1.03 ± 0.17
FBXO22 (UniProt Q8NEZ5)	1.11 ± 0.15	1.07 ± 0.12	1.08 ± 0.077	0.981 ± 0.19	1.08 ± 0.086	1.01 ± 0.063
UniProt Q8N2F6 and related entries	0.979 ± 0.03	0.994 ± 0.034	0.953 ± 0.066	1.03 ± 0.038	0.977 ± 0.059	0.942 ± 0.037
DHX37 (UniProt Q8IY37)	1.22 ± 0.031	1.23 ± 0.0075	1.29 ± 0.068	1.29 ± 0.049	1.37 ± 0.068	1.42 ± 0.055
GALNT6 (UniProt Q8NCL4)	0.954 ± 0.084	0.915 ± 0.11	0.982 ± 0.038	0.9823 ± 0.0019	0.971 ± 0.063	1.07 ± 0.018
PTGR2 (UniProt Q8N8N7)	0.969 ± 0.032	0.982 ± 0.027	1.02 ± 0.11	1.05 ± 0.051	0.955 ± 0.041	1.03 ± 0.067
PDPR (UniProt Q8NCN5)	1.03 ± 0.11	1.01 ± 0.085	1.02 ± 0.085	0.929 ± 0.12	1.03 ± 0.033	0.992 ± 0.053
ARFGAP1 (UniProt Q8N6T3)	0.95 ± 0.025	0.946 ± 0.0078	0.9122 ± 0.0079	0.965 ± 0.035	0.8935 ± 0.0073	0.91 ± 0.023
